Measured values taken from the supplement of paper PMC10849652.
The list shows a part of the results.

The chains behind the UniProt entries cited, without tags or fusion partners. Where a name states a change or a piece, a line headed by the entry shows the natural chain unless it says otherwise.
UniProt Q8N755: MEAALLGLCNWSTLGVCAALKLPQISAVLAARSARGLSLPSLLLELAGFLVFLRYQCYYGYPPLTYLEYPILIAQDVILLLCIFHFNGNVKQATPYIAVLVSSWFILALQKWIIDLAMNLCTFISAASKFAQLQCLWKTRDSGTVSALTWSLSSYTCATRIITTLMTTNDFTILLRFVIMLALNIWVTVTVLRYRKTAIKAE
UniProt Q7Z2H8: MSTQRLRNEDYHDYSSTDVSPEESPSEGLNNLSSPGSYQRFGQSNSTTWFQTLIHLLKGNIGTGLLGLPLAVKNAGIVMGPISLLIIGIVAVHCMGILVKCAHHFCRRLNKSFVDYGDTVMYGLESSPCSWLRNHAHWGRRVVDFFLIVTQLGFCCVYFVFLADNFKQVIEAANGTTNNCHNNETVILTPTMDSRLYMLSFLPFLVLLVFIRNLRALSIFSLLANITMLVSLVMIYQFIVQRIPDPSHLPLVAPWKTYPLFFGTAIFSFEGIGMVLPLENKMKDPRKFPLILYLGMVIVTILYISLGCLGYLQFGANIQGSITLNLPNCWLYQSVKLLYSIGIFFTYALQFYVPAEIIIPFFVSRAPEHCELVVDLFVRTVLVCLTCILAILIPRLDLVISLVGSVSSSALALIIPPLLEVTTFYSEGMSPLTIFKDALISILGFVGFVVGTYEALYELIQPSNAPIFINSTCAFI
UniProt Q96A46: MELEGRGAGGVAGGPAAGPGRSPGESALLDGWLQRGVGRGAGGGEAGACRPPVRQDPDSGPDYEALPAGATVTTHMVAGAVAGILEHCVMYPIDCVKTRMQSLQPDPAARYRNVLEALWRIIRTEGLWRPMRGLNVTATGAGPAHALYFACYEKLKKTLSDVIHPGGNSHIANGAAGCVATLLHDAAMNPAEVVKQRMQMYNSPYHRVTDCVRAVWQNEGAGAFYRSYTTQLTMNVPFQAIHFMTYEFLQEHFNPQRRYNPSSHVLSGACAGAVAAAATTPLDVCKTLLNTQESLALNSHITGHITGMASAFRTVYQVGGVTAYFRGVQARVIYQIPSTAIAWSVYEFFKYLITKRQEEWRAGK
UniProt Q96NT5: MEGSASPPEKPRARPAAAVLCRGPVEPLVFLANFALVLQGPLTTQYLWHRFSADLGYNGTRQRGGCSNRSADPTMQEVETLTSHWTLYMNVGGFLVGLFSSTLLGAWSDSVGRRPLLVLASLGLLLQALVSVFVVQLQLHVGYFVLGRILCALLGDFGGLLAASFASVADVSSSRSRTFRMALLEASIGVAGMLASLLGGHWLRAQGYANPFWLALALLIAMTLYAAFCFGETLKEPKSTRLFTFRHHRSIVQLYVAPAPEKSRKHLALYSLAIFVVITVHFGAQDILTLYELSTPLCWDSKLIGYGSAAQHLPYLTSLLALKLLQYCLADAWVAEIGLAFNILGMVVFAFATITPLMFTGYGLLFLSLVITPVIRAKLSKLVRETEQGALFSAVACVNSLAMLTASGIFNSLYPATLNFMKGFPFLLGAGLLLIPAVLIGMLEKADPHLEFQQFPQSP
UniProt Q9NRA2: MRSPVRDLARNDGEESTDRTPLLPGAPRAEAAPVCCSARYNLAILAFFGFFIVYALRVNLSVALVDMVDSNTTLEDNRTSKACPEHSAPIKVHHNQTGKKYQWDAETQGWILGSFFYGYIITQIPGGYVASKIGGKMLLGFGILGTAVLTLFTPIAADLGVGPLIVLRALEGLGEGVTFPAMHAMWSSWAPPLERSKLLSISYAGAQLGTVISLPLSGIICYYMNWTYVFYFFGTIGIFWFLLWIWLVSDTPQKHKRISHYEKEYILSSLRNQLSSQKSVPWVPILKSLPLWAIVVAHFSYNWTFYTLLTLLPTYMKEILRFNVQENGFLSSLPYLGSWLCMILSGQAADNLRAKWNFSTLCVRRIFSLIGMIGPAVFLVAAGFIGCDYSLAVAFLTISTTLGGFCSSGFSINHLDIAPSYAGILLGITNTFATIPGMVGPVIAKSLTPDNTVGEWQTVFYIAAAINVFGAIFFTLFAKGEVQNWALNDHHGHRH
UniProt Q7Z769: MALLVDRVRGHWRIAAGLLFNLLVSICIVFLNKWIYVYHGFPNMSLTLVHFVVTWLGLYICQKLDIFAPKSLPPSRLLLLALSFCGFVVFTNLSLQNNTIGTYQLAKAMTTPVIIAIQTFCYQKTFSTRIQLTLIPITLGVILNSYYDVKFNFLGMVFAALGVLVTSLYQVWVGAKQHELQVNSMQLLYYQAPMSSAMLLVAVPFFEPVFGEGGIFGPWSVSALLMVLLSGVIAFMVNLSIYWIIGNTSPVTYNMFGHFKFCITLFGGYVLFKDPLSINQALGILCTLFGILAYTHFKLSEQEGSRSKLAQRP
UniProt Q9BS91: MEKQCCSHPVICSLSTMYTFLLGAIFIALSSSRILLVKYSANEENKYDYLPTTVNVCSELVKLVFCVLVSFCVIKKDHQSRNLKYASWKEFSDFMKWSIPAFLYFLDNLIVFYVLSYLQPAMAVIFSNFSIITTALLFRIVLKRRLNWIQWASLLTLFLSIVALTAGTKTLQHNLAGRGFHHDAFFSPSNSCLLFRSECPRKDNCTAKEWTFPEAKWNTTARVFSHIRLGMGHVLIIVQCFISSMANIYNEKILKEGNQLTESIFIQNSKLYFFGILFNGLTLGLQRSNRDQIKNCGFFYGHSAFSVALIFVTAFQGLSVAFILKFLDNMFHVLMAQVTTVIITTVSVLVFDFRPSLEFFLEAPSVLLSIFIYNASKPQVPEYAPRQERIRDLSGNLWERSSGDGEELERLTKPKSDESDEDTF
UniProt Q70HW3: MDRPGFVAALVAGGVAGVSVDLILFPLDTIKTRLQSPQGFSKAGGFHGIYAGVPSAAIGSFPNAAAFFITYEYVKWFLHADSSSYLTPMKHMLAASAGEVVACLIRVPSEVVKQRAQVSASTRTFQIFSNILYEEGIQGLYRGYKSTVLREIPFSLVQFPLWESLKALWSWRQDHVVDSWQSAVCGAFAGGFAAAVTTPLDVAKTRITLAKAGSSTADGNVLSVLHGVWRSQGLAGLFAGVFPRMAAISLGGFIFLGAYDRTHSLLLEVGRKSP
UniProt Q9Y2P4: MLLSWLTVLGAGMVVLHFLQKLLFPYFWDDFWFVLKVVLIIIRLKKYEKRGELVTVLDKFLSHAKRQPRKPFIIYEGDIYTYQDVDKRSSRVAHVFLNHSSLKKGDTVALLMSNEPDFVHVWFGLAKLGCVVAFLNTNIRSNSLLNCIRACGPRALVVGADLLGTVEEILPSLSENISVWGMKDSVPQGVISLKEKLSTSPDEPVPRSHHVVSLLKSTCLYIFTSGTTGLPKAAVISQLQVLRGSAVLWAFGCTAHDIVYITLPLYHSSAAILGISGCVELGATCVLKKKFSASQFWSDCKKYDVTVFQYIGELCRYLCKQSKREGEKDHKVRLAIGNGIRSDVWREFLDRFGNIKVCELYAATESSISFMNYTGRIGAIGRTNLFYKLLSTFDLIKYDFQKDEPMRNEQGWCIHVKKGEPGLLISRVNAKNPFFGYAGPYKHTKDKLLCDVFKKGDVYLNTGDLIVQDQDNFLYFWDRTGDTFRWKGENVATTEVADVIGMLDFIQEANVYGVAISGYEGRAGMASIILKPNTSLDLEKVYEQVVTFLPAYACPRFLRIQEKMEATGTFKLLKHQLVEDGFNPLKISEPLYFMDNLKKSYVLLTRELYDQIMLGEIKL
UniProt Q8NBI5: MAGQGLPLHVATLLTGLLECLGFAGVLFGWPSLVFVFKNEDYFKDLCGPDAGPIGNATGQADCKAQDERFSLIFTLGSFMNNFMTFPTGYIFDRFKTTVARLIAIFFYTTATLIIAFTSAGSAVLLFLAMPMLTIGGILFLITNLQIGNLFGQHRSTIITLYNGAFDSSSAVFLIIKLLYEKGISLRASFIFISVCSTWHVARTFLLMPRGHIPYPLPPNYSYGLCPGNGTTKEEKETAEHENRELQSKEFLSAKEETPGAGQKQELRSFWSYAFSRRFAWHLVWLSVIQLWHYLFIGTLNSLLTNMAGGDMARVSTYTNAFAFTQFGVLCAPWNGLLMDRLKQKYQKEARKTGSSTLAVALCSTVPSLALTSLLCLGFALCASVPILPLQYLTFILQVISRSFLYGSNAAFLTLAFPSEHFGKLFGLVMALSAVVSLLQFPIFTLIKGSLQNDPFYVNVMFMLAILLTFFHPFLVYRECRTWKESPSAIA
UniProt Q9HAB3: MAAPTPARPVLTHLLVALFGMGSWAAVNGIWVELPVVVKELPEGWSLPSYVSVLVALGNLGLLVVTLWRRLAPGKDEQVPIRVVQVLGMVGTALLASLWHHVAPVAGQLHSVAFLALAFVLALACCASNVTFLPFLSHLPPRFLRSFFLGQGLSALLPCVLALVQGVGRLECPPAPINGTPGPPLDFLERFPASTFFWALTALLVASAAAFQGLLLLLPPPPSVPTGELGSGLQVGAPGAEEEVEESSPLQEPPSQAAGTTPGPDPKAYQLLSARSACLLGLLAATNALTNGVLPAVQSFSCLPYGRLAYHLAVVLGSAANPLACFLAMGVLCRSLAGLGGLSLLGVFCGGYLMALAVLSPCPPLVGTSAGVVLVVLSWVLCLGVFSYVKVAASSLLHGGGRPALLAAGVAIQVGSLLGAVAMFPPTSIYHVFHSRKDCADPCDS
UniProt Q2M3R5: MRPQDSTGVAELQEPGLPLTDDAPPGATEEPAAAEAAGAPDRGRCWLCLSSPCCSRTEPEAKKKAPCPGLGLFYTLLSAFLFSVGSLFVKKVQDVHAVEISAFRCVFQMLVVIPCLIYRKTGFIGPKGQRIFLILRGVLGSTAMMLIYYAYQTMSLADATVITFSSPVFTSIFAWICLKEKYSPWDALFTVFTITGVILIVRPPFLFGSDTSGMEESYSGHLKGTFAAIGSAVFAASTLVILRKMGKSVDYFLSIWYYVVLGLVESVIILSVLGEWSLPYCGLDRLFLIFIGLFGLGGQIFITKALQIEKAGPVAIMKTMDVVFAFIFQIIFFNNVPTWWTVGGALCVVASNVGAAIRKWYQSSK
UniProt Q6PCB7: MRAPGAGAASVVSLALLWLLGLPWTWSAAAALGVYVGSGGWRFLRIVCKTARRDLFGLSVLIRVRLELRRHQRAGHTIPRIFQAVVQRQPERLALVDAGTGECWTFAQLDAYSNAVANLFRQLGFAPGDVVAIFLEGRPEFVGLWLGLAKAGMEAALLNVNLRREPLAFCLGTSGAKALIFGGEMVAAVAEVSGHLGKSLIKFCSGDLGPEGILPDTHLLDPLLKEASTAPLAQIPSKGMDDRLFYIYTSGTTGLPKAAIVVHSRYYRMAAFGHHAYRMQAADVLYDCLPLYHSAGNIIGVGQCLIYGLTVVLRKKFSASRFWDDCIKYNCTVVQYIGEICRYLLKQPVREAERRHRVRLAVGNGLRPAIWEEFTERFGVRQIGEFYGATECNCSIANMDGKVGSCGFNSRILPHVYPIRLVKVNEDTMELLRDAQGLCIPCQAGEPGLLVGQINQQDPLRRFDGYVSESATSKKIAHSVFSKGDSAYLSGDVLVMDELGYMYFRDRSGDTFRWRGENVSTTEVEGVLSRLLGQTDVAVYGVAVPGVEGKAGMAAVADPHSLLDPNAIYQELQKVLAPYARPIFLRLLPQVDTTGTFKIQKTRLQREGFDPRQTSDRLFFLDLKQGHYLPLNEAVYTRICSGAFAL
UniProt Q6ZP29: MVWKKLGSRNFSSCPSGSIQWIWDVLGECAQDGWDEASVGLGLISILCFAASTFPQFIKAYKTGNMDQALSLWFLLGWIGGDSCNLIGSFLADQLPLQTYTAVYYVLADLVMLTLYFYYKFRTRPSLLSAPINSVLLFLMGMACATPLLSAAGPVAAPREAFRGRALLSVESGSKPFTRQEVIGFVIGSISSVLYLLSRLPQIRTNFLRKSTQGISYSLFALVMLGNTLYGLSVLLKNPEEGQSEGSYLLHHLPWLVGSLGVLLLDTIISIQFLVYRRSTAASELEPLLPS
UniProt Q6YBV0: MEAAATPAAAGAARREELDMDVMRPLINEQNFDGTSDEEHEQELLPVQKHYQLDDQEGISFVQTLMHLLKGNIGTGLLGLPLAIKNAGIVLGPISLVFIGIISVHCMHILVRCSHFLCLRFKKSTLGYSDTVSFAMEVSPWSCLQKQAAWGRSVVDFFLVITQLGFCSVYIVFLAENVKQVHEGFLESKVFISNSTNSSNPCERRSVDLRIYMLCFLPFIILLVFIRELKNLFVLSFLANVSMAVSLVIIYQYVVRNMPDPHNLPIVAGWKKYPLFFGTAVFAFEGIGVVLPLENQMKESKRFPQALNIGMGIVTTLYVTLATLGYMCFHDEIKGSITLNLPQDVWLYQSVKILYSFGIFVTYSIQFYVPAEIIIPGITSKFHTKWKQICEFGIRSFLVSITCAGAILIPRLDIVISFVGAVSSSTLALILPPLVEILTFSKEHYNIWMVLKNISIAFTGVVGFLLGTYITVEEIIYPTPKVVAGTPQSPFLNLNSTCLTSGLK

Key:
Assay in all cases: log2 fold change, soluble protein after heating vs DMSO (PISA); higher = thermal stabilisation; K562 cells, 10 uM, 30 min; active = over 0.2 and 3.5 SD of the protein, either way, in both replicates (recomputed)
[1] = compound: CC[C@H](C)N1C=C(C2=C(C=C(C=C21)C3=CN=C(C=C3)N4CCNCC4)C(=O)NCC5=C(C=C(NC5=O)C)C)C
How it was run: (§1)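 K562 cells at 2×10^6 cells/mL were exposed to 10 μM compound for 30 min, then aliquots were heated for 3 min across 48°C-58°C, pooled, and extracted in PBS containing 0.5% NP-40 at 4°C. The supernatant after 21,000xg for 90 min was taken as soluble protein and measured by TMTpro 16plex LC-MS/MS with channel sums equalised. Thermal stability is reported relative to control samples, with values from duplicates. Fold changes are given on a log2 scale.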

epoxomicin = compound: CC[C@H](C)[C@@H](C(=O)N[C@@H]([C@@H](C)O)C(=O)N[C@@H](CC(C)C)C(=O)[C@]1(CO1)C)NC(=O)[C@H]([C@@H](C)CC)N(C)C(=O)C [epoxomicin]
How it was run: as §1

[2] = compound: CCn1c(C(=O)N(C2CC2)C2CC2)cc2c3c(ncn3C)c(Nc3cc(C)n(C)n3)nc21
How it was run: as §1

sotrastaurin = compound: CN1CCN(c2nc(C3=C(c4c[nH]c5ccccc45)C(=O)NC3=O)c3ccccc3n2)CC1 [sotrastaurin]
How it was run: as §1

[3] = compound: CNC(=O)C1=CC=CC=C1NC2=NC(=NC=C2Cl)NC3=C(C=C(C=C3)N4CCOCC4)OC
How it was run: as §1

[4] = compound: CN1C2=C(C3=C1C(=O)N(N=C3)CC4=CC(=CC=C4)N)SC(=C2)S(=O)C
How it was run: as §1

saracatinib = compound: CN1CCN(CCOc2cc(OC3CCOCC3)c3c(Nc4c(Cl)ccc5c4OCO5)ncnc3c2)CC1 [saracatinib]
How it was run: as §1

[5] = compound: CNc1nc(-c2ccc3c(N)n[nH]c3c2)cc(N2C[C@@H](C(=O)NC3CCCCC3)CC[C@H]2C)n1
How it was run: as §1

volasertib = compound: CC[C@@H]1C(=O)N(C)c2cnc(Nc3ccc(C(=O)N[C@H]4CC[C@H](N5CCN(CC6CC6)CC5)CC4)cc3OC)nc2N1C(C)C [volasertib]
How it was run: as §1

rosiglitazone = compound: CN(CCOC1=CC=C(C=C1)C[C@H]2C(=O)NC(=O)S2)C3=CC=CC=N3 (racemic) [rosiglitazone]
How it was run: as §1

[6] = compound: CC[C@@H]1C(=O)N(C)c2cnc(Nc3ccc(C(=O)NC4CCN(C)CC4)cc3OC)nc2N1C1CCCC1
How it was run: as §1

[7] = compound: CCn1cc(-c2ccnc3[nH]c(-c4cccc(CN(C)C)c4)cc23)c(-c2ccc(NC(=O)N(C)C)cc2)n1
How it was run: as §1

[8] = compound: CN(C)CC(=O)Nc1ccc2[nH]c(=O)c3ccccc3c2c1
How it was run: as §1

[9] = compound: CN1CCC(CNc2ccc3ncc(-c4cccc(OC(F)(F)F)c4)n3n2)CC1
How it was run: as §1

Tubastatin A = compound: CN1CCc2c(c3ccccc3n2Cc2ccc(C(=O)NO)cc2)C1 [Tubastatin A]
How it was run: as §1

defactinib = compound: CNC(=O)c1ccc(Nc2ncc(C(F)(F)F)c(NCc3nccnc3N(C)S(C)(=O)=O)n2)cc1 [defactinib]
How it was run: as §1

rucaparib = compound: CNCc1ccc(-c2[nH]c3cc(F)cc4c3c2CCNC4=O)cc1 [rucaparib]
How it was run: as §1

encorafenib = compound: COC(=O)N[C@@H](C)CNc1nccc(-c2cn(C(C)C)nc2-c2cc(Cl)cc(NS(C)(=O)=O)c2F)n1 [encorafenib]
How it was run: as §1

[10] = compound: COC(=O)[C@H](CCSC)NC(=O)C1=C(C=C(C=C1)NC[C@H](CS)N)C2=CC=CC=C2
How it was run: as §1

alvocidib = compound: CN1CC[C@H](c2c(O)cc(O)c3c(=O)cc(-c4ccccc4Cl)oc23)[C@H](O)C1 [alvocidib]
How it was run: as §1

Measured: log2 fold change

SLC66A3 (UniProt Q8N755)
inactive: [1] -0.171 | epoxomicin -0.227 | [2] -0.105 | sotrastaurin 0.09 | [3] 0.097

SLC36A1 (UniProt Q7Z2H8)
inactive: [2] -0.087 | [4] -0.103 | saracatinib 0.106 | [3] -0.124 | [5] 0.257

SLC25A28 (UniProt Q96A46)
inactive: volasertib -0.377 | [1] -0.189 | rosiglitazone 0.091 | sotrastaurin 0.131

SLC46A1 (UniProt Q96NT5)
inactive: [6] 0.156 | [7] -0.072 | [8] -0.041 | [9] 0.087 | Tubastatin A 0.067 | [3] 0.085 | defactinib 0.034 | rucaparib -0.081 | encorafenib -0.051 | [10] -0.011

SLC17A5 (UniProt Q9NRA2)
inactive: [6] 0.145 | volasertib 0.027 | [2] -0.024 | sotrastaurin -0.037 | [3] -0.008 | rucaparib -0.102 | encorafenib 0.009

SLC36A1 (UniProt E5RG64)
inactive: rosiglitazone -0.306

SLC35E3 (UniProt Q7Z769)
inactive: volasertib 0 | [1] -0.183 | epoxomicin -0.111 | [2] 0.082 | [4] 0.05 | saracatinib -0.012 | sotrastaurin 0.046 | Tubastatin A -0.123 | [3] -0.018 | [5] 0.075

SLC35A5 (UniProt Q9BS91)
inactive: epoxomicin 0.018 | [2] -0.017 | [4] -0.096 | saracatinib 0.024 | alvocidib 0.076 | Tubastatin A 0.085 | [3] -0.035 | [5] -0.161

SLC39A9 (UniProt Q9NUM3)
inactive: [8] 0.242 | alvocidib -0.35 | Tubastatin A 0.286 | defactinib -0.037 | [10] -0.118

SLC22A5 isoform 3 (UniProt O76082)
inactive: volasertib 0.015 | [1] 0.109 | epoxomicin 0.178 | [7] -0.074 | [8] -0.03 | rosiglitazone 0.031 | [9] 0.375 | defactinib -0.124 | [10] -0.057

SLC25A26 (UniProt Q70HW3)
inactive: [6] 0.177 | [1] -0.04 | epoxomicin -0.024 | [2] -0.001 | [7] 0.082 | [8] 0.085 | rosiglitazone 0.003 | [4] -0.111 | [9] 0.168 | saracatinib 0.067 | sotrastaurin 0.013 | alvocidib 0.042 | Tubastatin A 0.205 | [3] 0.074 | defactinib -0.156 | rucaparib -0.001 | [5] -0.092 | encorafenib -0.009 | [10] 0.134

SLC27A6 (UniProt Q9Y2P4)
inactive: [1] 0.035 | epoxomicin -0.022 | [2] 0.014 | [8] -0.048 | rosiglitazone 0.17 | alvocidib -0.311 | Tubastatin A 0.197 | [3] 0.104 | defactinib 0 | [10] -0.247

Reprinted from the results shown (2 entries):
SLC22A5 isoform 3 (UniProt O76082)
inactive: volasertib 0.015 | [1] 0.109 | epoxomicin 0.178 | [7] -0.074 | [8] -0.03 | rosiglitazone 0.031 | [9] 0.375 | defactinib -0.124 | [10] -0.057

SLC25A26 (UniProt Q70HW3)
inactive: [6] 0.177 | [1] -0.04 | epoxomicin -0.024 | [2] -0.001 | [7] 0.082 | [8] 0.085 | rosiglitazone 0.003 | [4] -0.111 | [9] 0.168 | saracatinib 0.067 | sotrastaurin 0.013 | alvocidib 0.042 | Tubastatin A 0.205 | [3] 0.074 | defactinib -0.156 | rucaparib -0.001 | [5] -0.092 | encorafenib -0.009 | [10] 0.134

Next results

SLC43A3 (UniProt Q8NBI5)
inactive: volasertib 0.26 | epoxomicin 0.059 | sotrastaurin -0.027

SLC52A2 (UniProt Q9HAB3)
inactive: [6] -0.055 | [1] -0.039 | [2] -0.037 | [7] -0.112 | rosiglitazone -0.089 | [9] 0.317 | Tubastatin A -0.258 | [3] 0.126 | rucaparib 0.011 | encorafenib 0.05

SLC35G1 (UniProt Q2M3R5)
inactive: Tubastatin A -0.113

SLC27A1 (UniProt Q6PCB7)
inactive: [1] 0.022 | epoxomicin -0.021 | [8] 0.008 | [4] -0.072 | saracatinib -0.007 | sotrastaurin 0.013 | Tubastatin A -0.252 | [3] -0.011 | defactinib 0.064 | [5] 0.146 | [10] -0.183
active: volasertib -0.639

SLC66A1 (UniProt Q6ZP29)
inactive: [6] -0.271 | [1] 0.069 | [2] 0.181 | rosiglitazone 0.204 | [3] 0.316 | rucaparib -0.175 | encorafenib 0.022

SLC36A4 (UniProt Q6YBV0)
inactive: epoxomicin 0.419 | [2] -0.136 | rosiglitazone 0.049 | [3] -0.078
